Results deposited as PubChem BioAssay AID1259264 (Sanger Institute, 2017).

Test: 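Kinase-wide knock-down to find genes that strengthen targeted drug effects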 (primary screen)
Cell system: CL40 human colorectal cancer cells
Reagent: siRNA pool against human genes
Conditions: DMSO, or an anchor drug: BYL719 at 1 µM, cetuximab at 5 µg/ml, or trametinib at 10 nM
Measured: 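Viability as a fraction of non-targeting pool control (replicates averaged), control-based robust z-score, plus averaged synergy for each drug: BYL719 1 µM, cetuximab 5 µg/ml, trametinib 10 nM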
Direction: robust z-score, siRNA alone and viability, siRNA alone: higher = more viable cells
Units: viability, siRNA alone in fraction of control
Rule for the call: 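a gene counts as essential when knock-down without drug gives a robust z-score below -3, meaning fewer cells; synergy scores play no part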
Meaning of the calls: active = essential (lowers viability alone); inactive = not essential
Shown is an unselected part of 794 reagents. Of all reagents, 15 (1.9%) got an active call. 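Calls rest on knock-down alone at z-score below -3; synergy scores with the three drugs do not decide them.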 Unmarked entries are inactive. No viability above 1 is reported: the scale is capped. Not all columns of the deposit are shown. Not given: the amount of reagent, the time to read-out.

For NUAK1 (NUAK family kinase 1), the entry reads robust z-score, siRNA alone -0.874; viability, siRNA alone 0.899. Against AURKC (aurora kinase C), the entry reads robust z-score, siRNA alone 0.539; viability, siRNA alone 1. With knock-down of BPTF (bromodomain PHD finger transcription factor), the record shows robust z-score, siRNA alone -0.353; viability, siRNA alone 0.936. After knock-down of LIMK1 (LIM domain kinase 1) the results were robust z-score, siRNA alone 0.539; viability, siRNA alone 1. Knock-down of GATA3 (GATA binding protein 3) gave: robust z-score, siRNA alone 0.539; viability, siRNA alone 1. CHKA (choline kinase alpha) scored robust z-score, siRNA alone -0.0895; viability, siRNA alone 0.955.

With knock-down of TNK2 (tyrosine kinase non receptor 2) the results were robust z-score, siRNA alone 0.539; viability, siRNA alone 1. After knock-down of TYRO3 (TYRO3 protein tyrosine kinase), the screen gave robust z-score, siRNA alone -0.0735; viability, siRNA alone 0.956. Depletion of GUCY2EP (guanylate cyclase 2E, pseudogene) resulted in: robust z-score, siRNA alone -0.0703; viability, siRNA alone 0.956. For DYRK1B, the values are robust z-score, siRNA alone -0.41; viability, siRNA alone 0.932. For MARK1 (microtubule affinity regulating kinase 1), the values are robust z-score, siRNA alone 0.539; viability, siRNA alone 1. Against STK32C (serine/threonine kinase 32C), the values are robust z-score, siRNA alone 0.539; viability, siRNA alone 1.

MAPK9 (mitogen-activated protein kinase 9) gave robust z-score, siRNA alone 0.539; viability, siRNA alone 1. For CAMKK2 (calcium/calmodulin dependent protein kinase kinase 2) the deposit lists robust z-score, siRNA alone 0.539; viability, siRNA alone 1. With knock-down of GUK1 (guanylate kinase 1), the record shows robust z-score, siRNA alone -2.07; viability, siRNA alone 0.813. Against TAF1L (TATA-box binding protein associated factor 1 like) the deposit lists robust z-score, siRNA alone 0.539; viability, siRNA alone 1. Silencing of PLK1 (polo like kinase 1) came out at: robust z-score, siRNA alone -6.4 (active); viability, siRNA alone 0.503. CKMT1B (creatine kinase, mitochondrial 1B) showed robust z-score, siRNA alone -2.84; viability, siRNA alone 0.758.

Knock-down of SHPK (sedoheptulokinase) gave: robust z-score, siRNA alone -0.568; viability, siRNA alone 0.921.

3 entries already listed, ordered by “viability, siRNA alone”, lowest first:
NUAK1 (NUAK family kinase 1) | robust z-score, siRNA alone = -0.874; viability, siRNA alone = 0.899
BPTF (bromodomain PHD finger transcription factor) | robust z-score, siRNA alone = -0.353; viability, siRNA alone = 0.936
AURKC (aurora kinase C) | robust z-score, siRNA alone = 0.539; viability, siRNA alone = 1
